Measured values from paper doi:10.1101/2020.05.01.070433.
Results are given in words; binding and its absence hold for the method and conditions named. In cells and extracts the contact can be indirect. Here binding means that the protein was enriched with, or labelled near, the bait; the list need not be complete.

Sequences of proteins named here, by UniProt entry; tags and fusion partners are left off.
UniProt Q965S0: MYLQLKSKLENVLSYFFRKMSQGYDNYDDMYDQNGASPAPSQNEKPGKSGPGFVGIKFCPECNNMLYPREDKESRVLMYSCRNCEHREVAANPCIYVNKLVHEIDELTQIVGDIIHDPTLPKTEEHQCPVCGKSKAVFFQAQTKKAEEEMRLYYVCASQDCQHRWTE
UniProt Q9N5K2: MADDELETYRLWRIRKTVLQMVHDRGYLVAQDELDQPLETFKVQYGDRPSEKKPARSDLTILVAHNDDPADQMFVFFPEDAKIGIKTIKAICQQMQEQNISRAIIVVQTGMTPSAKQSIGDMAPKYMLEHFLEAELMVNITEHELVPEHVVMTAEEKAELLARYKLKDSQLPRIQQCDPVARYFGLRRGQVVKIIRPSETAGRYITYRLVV
UniProt P16356: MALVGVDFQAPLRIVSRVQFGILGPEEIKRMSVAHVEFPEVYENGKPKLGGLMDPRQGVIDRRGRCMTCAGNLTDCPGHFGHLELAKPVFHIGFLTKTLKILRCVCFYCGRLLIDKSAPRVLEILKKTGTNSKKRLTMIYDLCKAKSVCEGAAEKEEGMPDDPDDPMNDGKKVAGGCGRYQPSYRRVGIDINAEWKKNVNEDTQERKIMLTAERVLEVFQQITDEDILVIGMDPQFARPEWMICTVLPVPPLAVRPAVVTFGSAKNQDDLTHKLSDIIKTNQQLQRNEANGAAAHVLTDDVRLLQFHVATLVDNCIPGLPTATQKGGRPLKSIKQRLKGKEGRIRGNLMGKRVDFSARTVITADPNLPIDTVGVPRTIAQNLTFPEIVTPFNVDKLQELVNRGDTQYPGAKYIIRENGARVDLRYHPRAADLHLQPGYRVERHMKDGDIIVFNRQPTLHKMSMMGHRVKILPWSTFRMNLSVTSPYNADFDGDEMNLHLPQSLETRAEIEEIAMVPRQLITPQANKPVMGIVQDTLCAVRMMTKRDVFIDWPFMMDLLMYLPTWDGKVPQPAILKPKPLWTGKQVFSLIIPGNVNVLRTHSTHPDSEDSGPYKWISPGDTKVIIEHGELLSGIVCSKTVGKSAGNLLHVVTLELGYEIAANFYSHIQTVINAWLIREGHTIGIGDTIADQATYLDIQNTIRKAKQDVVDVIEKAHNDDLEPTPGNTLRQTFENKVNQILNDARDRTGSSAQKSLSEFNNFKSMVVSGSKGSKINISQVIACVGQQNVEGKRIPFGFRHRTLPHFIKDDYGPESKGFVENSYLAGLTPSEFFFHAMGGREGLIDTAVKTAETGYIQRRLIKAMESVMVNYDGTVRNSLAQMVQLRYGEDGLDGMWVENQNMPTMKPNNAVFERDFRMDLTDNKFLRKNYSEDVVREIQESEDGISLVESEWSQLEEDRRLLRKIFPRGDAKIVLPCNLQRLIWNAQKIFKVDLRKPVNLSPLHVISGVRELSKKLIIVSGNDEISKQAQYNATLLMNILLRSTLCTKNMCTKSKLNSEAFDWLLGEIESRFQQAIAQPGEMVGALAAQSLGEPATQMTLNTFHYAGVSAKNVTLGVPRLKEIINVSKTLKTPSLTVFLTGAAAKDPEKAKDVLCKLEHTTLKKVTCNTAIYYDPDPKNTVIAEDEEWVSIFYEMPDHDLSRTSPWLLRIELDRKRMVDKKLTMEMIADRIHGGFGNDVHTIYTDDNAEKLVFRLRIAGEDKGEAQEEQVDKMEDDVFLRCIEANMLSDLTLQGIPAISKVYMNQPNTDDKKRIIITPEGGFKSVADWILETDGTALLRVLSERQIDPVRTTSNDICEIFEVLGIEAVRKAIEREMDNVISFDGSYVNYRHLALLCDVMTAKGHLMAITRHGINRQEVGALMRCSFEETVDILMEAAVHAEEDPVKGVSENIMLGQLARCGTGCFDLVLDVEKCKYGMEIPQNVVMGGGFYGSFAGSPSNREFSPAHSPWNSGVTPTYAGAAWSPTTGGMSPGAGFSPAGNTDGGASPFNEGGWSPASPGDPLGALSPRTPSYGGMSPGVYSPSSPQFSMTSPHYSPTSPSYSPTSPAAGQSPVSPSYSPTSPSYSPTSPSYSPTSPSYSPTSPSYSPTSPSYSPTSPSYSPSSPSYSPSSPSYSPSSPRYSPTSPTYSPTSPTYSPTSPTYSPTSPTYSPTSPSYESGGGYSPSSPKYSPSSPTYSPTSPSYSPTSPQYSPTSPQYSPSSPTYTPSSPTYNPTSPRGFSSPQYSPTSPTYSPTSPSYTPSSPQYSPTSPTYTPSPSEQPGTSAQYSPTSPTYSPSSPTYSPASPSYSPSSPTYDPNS
UniProt Q21338: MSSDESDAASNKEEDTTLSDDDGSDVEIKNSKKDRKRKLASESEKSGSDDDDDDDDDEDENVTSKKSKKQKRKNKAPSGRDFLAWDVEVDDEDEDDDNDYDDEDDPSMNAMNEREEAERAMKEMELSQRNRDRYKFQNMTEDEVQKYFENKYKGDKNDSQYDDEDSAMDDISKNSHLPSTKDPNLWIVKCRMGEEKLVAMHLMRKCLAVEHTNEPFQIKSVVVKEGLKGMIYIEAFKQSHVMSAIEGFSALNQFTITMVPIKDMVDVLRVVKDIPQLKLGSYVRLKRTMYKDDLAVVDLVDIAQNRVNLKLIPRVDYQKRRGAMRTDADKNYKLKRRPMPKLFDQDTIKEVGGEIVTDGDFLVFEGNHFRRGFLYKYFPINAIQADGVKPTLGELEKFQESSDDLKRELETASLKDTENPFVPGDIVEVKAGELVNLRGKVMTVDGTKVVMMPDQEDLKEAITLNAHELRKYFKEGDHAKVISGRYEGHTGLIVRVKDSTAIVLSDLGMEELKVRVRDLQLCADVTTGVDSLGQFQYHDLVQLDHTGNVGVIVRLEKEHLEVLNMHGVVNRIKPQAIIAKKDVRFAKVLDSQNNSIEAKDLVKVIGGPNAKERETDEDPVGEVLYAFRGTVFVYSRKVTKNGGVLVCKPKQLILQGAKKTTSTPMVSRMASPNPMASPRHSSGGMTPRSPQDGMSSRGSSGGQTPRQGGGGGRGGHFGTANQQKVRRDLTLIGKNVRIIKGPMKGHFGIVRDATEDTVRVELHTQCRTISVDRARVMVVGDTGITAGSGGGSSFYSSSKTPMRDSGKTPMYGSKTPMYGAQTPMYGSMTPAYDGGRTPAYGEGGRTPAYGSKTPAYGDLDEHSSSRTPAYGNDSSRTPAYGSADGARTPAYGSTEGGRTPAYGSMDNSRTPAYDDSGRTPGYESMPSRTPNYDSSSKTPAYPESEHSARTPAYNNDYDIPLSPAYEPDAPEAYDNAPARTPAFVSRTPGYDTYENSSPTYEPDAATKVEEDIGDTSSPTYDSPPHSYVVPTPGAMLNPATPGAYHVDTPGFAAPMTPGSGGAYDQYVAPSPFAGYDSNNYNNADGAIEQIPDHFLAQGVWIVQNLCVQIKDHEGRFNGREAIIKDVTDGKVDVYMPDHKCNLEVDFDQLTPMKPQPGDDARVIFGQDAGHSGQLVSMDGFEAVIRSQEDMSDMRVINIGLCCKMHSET
UniProt P34703: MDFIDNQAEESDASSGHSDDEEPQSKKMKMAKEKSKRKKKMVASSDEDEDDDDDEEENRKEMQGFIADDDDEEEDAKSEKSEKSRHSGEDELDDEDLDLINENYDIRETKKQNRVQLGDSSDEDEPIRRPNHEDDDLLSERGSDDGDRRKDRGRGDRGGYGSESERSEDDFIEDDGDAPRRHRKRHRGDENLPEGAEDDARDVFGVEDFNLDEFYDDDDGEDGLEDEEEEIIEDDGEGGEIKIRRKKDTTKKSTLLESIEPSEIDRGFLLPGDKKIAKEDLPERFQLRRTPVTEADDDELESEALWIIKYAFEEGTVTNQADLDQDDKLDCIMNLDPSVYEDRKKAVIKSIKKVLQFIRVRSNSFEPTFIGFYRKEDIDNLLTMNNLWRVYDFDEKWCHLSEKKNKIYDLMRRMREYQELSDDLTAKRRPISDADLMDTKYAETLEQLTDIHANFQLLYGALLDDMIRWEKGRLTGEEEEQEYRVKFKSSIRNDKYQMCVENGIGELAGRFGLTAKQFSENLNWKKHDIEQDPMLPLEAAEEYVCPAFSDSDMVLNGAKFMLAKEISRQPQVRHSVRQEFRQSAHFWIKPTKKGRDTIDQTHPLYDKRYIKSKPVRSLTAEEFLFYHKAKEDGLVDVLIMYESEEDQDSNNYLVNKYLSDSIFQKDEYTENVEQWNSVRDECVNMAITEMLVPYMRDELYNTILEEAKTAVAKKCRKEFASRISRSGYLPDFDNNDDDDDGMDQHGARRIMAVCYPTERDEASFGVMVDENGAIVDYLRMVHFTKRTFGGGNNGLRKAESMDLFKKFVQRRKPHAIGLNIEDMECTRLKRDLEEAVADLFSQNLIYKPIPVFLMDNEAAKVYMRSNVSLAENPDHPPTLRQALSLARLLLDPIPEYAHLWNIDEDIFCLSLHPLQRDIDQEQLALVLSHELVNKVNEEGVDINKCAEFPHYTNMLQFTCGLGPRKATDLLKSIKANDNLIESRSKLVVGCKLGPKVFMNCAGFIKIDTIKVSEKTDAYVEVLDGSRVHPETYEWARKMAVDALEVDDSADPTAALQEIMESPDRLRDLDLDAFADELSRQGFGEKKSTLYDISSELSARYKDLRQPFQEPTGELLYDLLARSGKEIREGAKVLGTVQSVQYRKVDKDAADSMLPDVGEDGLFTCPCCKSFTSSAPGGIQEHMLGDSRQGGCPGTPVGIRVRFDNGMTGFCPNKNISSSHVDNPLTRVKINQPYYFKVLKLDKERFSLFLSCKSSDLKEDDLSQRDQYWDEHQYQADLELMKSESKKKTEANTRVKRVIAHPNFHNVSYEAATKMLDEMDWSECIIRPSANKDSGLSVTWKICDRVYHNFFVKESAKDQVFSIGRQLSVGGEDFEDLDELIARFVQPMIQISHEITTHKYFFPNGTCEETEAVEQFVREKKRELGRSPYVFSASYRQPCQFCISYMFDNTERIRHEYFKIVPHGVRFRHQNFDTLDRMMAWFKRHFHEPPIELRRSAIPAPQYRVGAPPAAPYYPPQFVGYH

Target: RPB-9::OLLAS (C. elegans) (UniProt Q965S0)
Assay: affinity purification with mass spectrometry

| binding | Molecule |
| --- | --- |
| binds | RPB-5 (from UniProt Q9N5K2 1-211) |
| binds | RPB-1/AMA-1 (from UniProt P16356 1-1856) |
| binds | SPT-5 (from UniProt Q21338 1-1208) |
| binds | EMB-5 (from UniProt P34703 1-1521) |
| binds | CTR-9 (protein, UniProt Q03560 1-1150) MDESIDDVQETRTIAIPLKDSHEDEVIEINCSELPDGEEVLQILEAEEAKLSYWIEVALEYYRQDRVDLFMMILESAGSRAGLEYEGVKQDQMRALDILAAYWMTQGYREKAKDKKSDFFSKATVLFNTADKIAMYEWSHLTVRAWFYLFERDKSTNKYELADQQFNYVVKTNPKNVLPLIGKAVIAFNKKDYKTAIYYFRKAIRQCRHTIADLRVGIGHCFAKMGMMDKAKTAFERAMEIEPYNVSAMCGLGIILLNTYDHDSLKHAVSLFGRSYNLQTDHPVALIHLANHFFFKKEIERAWTLAWHAATYNDCDSIKAEAFYQMGRCRHAQGQFDGAYKYYYQARQANNGEHTLAHYGLGQMYIHRNEIEEAIKCFDTVHKRLPNNTDTMKILGSLYAHVQLNDPAQTAEARQKGRDVLGKYLAVENDDYEACIDLAQLLEATDPKRSLELYENAIDLLVTNESIQPQPEMLNNVGALYMSMKQYEKAEHHFKRAKERLEEQLNTDEGSLLLERRSAPEKSHLLTIRYNLALCLEHLCRTVEAEQMYKDIVKECPGYIDGYLRLGCITRDRHQVYESSLWLKQGVQFDQASPIVWTLIGNLHFAKNEWMPAQKKFEFILSKIFNNKIPDPYSLVALGNVWFEQLLNPSRKKEDEKKYIDRALQMYQKALKLQPKNMYAANGIGCVLAYKRNWNDARDVFSQVRESTSEFYDVWLNIAHVCMEREQWMAAVQMYSSAMKKFRKENDSTLQHYLAKAYYRANMLNEAKEALECAMLDQLDNTQLKFNYAIVLKKSAKEVLRGHKMTSEQVTAAIDDLKFADKIFQYISKNDDRQSSHTGMRISRTICAEEAKNCKDLLTQAKHKLAAAQTQDEEERRLMEKQEKEKIALQNKMIEEARAKEEAEKQKLEDMKNLRLSFIEMTKDVLRLPEIVEEKRRGGGGRKRRNDDGDEFVNDSSDAGNYDGEEGGEDGERRERRKKDKAAKKASRKKRERRDSGGPDSNRRDEKKRKRKEERDRKLQEKLSAKQSAKIKSRAFLSSSESSDDDKPKPAADSSDDEVDPRPPVDEFDSPTRTDSDSDRETTTKKKKKKAVVDSDEGSVSGSGSGSDNDDKPIIGGSDDDDDDKPAGGNSRDSDGSDAPKKKVIESDSD |
